Measurements from patent US20230181719A1, “NGR CONJUGATES AND USES THEREOF” (OSPEDALE SAN RAFFAELE S.R.L., priority 2020, published 2023).
These are yes or no findings as the source states them, for the method shown. Some entries that bind do so weakly or less than the wild type.

Protein sequences, listed by entry. Tags and fused reporters are not part of them. Lines headed by an entry give the natural chain unless they say otherwise; changes in a name come on top.
UniProt P06756: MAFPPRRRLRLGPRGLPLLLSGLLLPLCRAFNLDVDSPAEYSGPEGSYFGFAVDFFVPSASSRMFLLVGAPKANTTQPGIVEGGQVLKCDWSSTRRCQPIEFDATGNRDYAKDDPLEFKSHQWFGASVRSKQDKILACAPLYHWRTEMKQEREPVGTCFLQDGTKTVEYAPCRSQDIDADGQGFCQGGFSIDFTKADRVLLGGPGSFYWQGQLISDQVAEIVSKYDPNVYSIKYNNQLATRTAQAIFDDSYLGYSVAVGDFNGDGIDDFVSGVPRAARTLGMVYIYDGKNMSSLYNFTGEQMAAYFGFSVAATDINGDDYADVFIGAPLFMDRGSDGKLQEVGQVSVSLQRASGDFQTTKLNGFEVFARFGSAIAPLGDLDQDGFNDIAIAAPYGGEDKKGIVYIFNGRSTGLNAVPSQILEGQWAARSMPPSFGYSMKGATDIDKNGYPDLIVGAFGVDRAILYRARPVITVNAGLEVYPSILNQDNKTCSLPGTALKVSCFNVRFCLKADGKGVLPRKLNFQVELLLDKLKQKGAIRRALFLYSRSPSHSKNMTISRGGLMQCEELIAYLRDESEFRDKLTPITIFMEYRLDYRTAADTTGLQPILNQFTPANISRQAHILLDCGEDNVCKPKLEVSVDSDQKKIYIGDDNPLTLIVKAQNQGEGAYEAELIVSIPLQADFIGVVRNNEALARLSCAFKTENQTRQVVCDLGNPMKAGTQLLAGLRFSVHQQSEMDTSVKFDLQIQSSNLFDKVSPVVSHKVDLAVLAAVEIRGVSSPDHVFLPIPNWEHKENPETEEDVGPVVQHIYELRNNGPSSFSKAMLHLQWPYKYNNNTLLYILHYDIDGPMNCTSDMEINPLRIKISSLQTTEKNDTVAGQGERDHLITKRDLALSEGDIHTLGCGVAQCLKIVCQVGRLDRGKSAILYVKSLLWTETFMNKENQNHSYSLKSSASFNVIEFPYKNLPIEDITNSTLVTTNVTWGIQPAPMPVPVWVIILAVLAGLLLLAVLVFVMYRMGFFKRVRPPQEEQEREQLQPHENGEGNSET
UniProt P08648: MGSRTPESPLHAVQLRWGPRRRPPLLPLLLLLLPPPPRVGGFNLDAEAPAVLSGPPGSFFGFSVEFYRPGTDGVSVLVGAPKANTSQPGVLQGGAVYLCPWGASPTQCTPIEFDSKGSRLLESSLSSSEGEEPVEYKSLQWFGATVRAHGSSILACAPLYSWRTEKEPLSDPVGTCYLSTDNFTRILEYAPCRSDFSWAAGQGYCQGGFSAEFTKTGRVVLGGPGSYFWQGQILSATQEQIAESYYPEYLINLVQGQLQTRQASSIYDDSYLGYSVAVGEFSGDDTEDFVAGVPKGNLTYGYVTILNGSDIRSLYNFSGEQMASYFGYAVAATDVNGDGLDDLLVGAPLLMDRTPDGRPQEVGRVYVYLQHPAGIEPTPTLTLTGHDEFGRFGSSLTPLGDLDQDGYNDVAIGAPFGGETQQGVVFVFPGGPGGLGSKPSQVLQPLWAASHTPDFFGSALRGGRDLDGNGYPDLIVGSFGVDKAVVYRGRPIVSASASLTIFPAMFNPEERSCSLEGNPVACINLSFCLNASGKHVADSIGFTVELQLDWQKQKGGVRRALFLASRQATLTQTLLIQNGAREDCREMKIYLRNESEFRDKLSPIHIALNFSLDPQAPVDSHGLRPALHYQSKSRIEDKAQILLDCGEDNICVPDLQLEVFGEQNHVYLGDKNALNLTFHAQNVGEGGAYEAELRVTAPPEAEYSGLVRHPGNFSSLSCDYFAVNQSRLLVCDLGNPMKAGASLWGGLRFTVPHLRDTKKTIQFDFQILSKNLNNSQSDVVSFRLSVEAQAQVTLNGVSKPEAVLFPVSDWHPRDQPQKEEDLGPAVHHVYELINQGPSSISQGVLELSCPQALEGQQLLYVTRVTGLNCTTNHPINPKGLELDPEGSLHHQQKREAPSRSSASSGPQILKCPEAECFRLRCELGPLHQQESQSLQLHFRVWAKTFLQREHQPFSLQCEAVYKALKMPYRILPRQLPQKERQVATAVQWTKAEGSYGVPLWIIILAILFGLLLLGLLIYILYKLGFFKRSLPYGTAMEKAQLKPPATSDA

Tests used:
Experiment in all cases: competitive binding assay, integrin-coated plates
[1] = biological target: T1, αvβ5 integrin (UniProt P06756 31-992; P18084 24-719, limits assumed)
T1 construct: Coated on microtiter plates

[2] = biological target: T2, αvβ6 integrin (UniProt P06756 31-992; P18564 22-707, limits assumed)
T2 construct: Coated on microtiter plates

[3] = biological target: T3, αvβ8 integrin (UniProt P06756 31-992; P26012 43-684, limits assumed)
T3 construct: Coated on microtiter plates

[4] = biological target: T4, α5β1 integrin (UniProt P08648 42-995; P05556 21-728, limits assumed)
T4 construct: Coated on microtiter plates

[5] = biological target: T5, αvβ3 integrin (UniProt P06756 31-992; P05106 27-718, limits assumed)
T5 construct: Coated on microtiter plates

Measured: binding

B1: SCDGRCGVRY peptide (peptide)
peptide: SCDGRCGVRY
binds: [1] | [2] | [3] | [4] | [5]
